In article PMC10907362:
Results are given in words; binding and its absence hold for the method and conditions named. In cells and extracts the contact can be indirect. These calls come from enrichment with a bait or labelling near it, and not all partners need be listed. Where a sequence is shown, tags or fusion partners need not be part of it.

Molecular target: T1, Flag-USP40 (in HLMVECs) (human) (UniProt Q9NVE5)
T1 sequence: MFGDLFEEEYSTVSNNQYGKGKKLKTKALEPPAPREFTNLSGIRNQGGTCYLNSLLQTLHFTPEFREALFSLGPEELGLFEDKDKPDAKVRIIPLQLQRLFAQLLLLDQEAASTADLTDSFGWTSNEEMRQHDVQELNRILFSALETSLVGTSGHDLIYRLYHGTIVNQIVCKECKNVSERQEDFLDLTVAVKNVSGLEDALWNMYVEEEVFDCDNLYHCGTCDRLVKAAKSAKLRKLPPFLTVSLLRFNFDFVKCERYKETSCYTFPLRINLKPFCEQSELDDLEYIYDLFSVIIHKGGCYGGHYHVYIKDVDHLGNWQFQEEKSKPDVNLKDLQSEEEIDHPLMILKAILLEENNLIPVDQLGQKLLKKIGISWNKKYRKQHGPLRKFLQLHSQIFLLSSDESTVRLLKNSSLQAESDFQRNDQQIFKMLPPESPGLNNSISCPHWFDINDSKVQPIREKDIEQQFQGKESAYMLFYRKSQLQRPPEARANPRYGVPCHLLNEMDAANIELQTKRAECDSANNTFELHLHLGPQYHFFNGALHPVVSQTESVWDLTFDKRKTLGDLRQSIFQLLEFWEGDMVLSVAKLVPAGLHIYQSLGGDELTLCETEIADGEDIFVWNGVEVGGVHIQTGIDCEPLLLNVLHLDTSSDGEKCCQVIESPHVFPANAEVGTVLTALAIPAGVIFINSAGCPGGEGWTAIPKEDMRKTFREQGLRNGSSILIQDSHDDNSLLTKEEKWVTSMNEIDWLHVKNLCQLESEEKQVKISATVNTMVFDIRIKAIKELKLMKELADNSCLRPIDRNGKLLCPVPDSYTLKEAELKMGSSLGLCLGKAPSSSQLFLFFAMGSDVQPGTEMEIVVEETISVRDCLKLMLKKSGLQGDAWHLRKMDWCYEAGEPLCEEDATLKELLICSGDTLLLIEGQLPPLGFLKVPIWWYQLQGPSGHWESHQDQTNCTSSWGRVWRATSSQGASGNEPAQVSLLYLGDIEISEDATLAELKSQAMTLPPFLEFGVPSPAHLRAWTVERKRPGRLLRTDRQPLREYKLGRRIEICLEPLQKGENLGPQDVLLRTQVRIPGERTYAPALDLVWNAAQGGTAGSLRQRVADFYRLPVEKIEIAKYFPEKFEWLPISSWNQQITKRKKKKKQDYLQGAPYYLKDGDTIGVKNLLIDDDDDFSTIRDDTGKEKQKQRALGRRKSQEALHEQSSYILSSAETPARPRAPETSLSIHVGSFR
Test: affinity purification with mass spectrometry; Flag-USP40 immunoprecipitated from transfected HLMVECs with FLAG-M2 affinity gel; eluted under reducing conditions, SDS-PAGE, Coomassie, bands excised, in-gel trypsin digestion, LC-MS

B1: Engulfment and cell motility protein 2 (protein, UniProt Q96JJ3 1-720)
chain: MPPPSDIVKVAIEWPGANAQLLEIDQKRPLASIIKEVCDGWSLPNPEYYTLRYADGPQLYITEQTRSDIKNGTILQLAISPSRAARQLMERTQSSNMETRLDAMKELAKLSADVTFATEFINMDGIIVLTRLVESGTKLLSHYSEMLAFTLTAFLELMDHGIVSWDMVSITFIKQIAGYVSQPMVDVSILQRSLAILESMVLNSQSLYQKIAEEITVGQLISHLQVSNQEIQTYAIALINALFLKAPEDKRQDMANAFAQKHLRSIILNHVIRGNRPIKTEMAHQLYVLQVLTFNLLEERMMTKMDPNDQAQRDIIFELRRIAFDAESDPSNAPGSGTEKRKAMYTKDYKMLGFTNHINPAMDFTQTPPGMLALDNMLYLAKVHQDTYIRIVLENSSREDKHECPFGRSAIELTKMLCEILQVGELPNEGRNDYHPMFFTHDRAFEELFGICIQLLNKTWKEMRATAEDFNKVMQVVREQITRALPSKPNSLDQFKSKLRSLSYSEILRLRQSERMSQDDFQSPPIVELREKIQPEILELIKQQRLNRLCEGSSFRKIGNRRRQERFWYCRLALNHKVLHYGDLDDNPQGEVTFESLQEKIPVADIKAIVTGKDCPHMKEKSALKQNKEVLELAFSILYDPDETLNFIAPNKYEYCIWIDGLSALLGKDMSSELTKSDLDTLLSMEMKLRLLDLENIQIPEAPPPIPKEPSSYDFVYHYG
binding: binds

B2: Serpin H1 (protein, UniProt P50454 19-418)
chain: AEVKKPAAAAAPGTAEKLSPKAATLAERSAGLAFSLYQAMAKDQAVENILVSPVVVASSLGLVSLGGKATTASQAKAVLSAEQLRDEEVHAGLGELLRSLSNSTARNVTWKLGSRLYGPSSVSFADDFVRSSKQHYNCEHSKINFRDKRSALQSINEWAAQTTDGKLPEVTKDVERTDGALLVNAMFFKPHWDEKFHHKMVDNRGFMVTRSYTVGVMMMHRTGLYNYYDDEKEKLQIVEMPLAHKLSSLIILMPHHVEPLERLEKLLTKEQLKIWMGKMQKKAVAISLPKGVVEVTHDLQKHLAGLGLTEAIDKNKADLSRMSGKKDLYLASVFHATAFELDTDGNPFDQDIYGREELRSPKLFYADHPFIFLVRDTQSGSLLFIGRLVRPKGDKMRDEL
binding: binds

B3: Tropomodulin-3 (protein, UniProt Q9NYL9 1-352)
chain: MALPFRKDLEKYKDLDEDELLGNLSETELKQLETVLDDLDPENALLPAGFRQKNQTSKSTTGPFDREHLLSYLEKEALEHKDREDYVPYTGEKKGKIFIPKQKPVQTFTEEKVSLDPELEEALTSASDTELCDLAAILGMHNLITNTKFCNIMGSSNGVDQEHFSNVVKGEKILPVFDEPPNPTNVEESLKRTKENDAHLVEVNLNNIKNIPIPTLKDFAKALETNTHVKCFSLAATRSNDPVATAFAEMLKVNKTLKSLNVESNFITGVGILALIDALRDNETLAELKIDNQRQQLGTAVELEMAKMLEENTNILKFGYQFTQQGPRTRAANAITKNNDLVRKRRVEGDHQ
binding: binds

B4: Isoform 2 of Protein flightless-1 homolog (protein, UniProt Q13045-2 1-1214)
chain: MEATGVLPFVRGVDLSGNDFKGGYFPENVKAMTSLRWLKLNRTGLCYLPEELAALQKLEHLSVSHNNLTTLHGELSSLPSLRAIVARANSLKNSGVPDDIFKLDDLSVLDLSHNQLTECPRELENAKNMLVLNLSHNRQLPAMTALQTLHLRSTQRTQSNLPTSLEGLSNLADVDLSCNDLTRVPECLYTLPSLRRLNLSSNQITELSLCIDQWVHVETLNLSRNQLTSLPSAICKLSKLKKLYLNSNKLDFDGLPSGIGKLTNLEEFMAANNNLELVPESLCRCPKLRKLVLNKNHLVTLPEAIHFLTEIEVLDVRENPNLVMPPKPADRAAEWYNIDFSLQNQLRLAGASPATVAAAAAGSGPKDPMARKMRLRRRKDSAQDDQAKQVLKGMSDVAQEKNKKQEESADARAPSGKVRRWDQGLEKPRLDYSEFFTEDVGQLPGLTIWQIENFVPVLVEEAFHGKFYEADCYIVLKTFLDDSGSLNWEIYYWIGGEATLDKKACSAIHAVNLRNYLGAECRTVREEMGDESEEFLQVFDNDISYIEGGTASGFYTVEDTHYVTRMYRVYGKKNIKLEPVPLKGTSLDPRFVFLLDRGLDIYVWRGAQATLSSTTKARLFAEKINKNERKGKAEITLLVQGQELPEFWEALGGEPSEIKKHVPEDFWPPQPKLYKVGLGLGYLELPQINYKLSVEHKQRPKVELMPRMRLLQSLLDTRCVYILDCWSDVFIWLGRKSPRLVRAAALKLGQELCGMLHRPRHATVSRSLEGTEAQVFKAKFKNWDDVLTVDYTRNAEAVLQSPGLSGKVKRDAEKKDQMKADLTALFLPRQPPMSLAEAEQLMEEWNEDLDGMEGFVLEGKKFARLPEEEFGHFYTQDCYVFLCRYWVPVEYEEEEKKEDKEEKAEGKEGEEATAEAEEKQPEEDFQCIVYFWQGREASNMGWLTFTFSLQKKFESLFPGKLEVVRMTQQQENPKFLSHFKRKFIIHRGKRKAVQGAQQPSLYQIRTNGSALCTRCIQINTDSSLLNSEFCFILKVPFESEDNQGIVYAWVGRASDPDEAKLAEDILNTMFDTSYSKQVINEGEEPENFFWVGIGAQKPYDDDAEYMKHTRLFRCSNEKGYFAVTEKCSDFCQDDLADDDIMLLDNGQEVYMWVGTQTSQVEIKLSLKACQVYIQHMRSKEHERPRRLRLVRKGNEQHAFTRCFHAWSAFCKALA
binding: binds

B5: Ataxin-2-like protein (protein, UniProt Q8WWM7 1-1075)
chain: MLKPQPLQQPSQPQQPPPTQQAVARRPPGGTSPPNGGLPGPLATSAAPPGPPAAASPCLGPVAAAGSGLRRGAEGILAPQPPPPQQHQERPGAAAIGSARGQSTGKGPPQSPVFEGVYNNSRMLHFLTAVVGSTCDVKVKNGTTYEGIFKTLSSKFELAVDAVHRKASEPAGGPRREDIVDTMVFKPSDVMLVHFRNVDFNYATKDKFTDSAIAMNSKVNGEHKEKVLQRWEGGDSNSDDYDLESDMSNGWDPNEMFKFNEENYGVKTTYDSSLSSYTVPLEKDNSEEFRQRELRAAQLAREIESSPQYRLRIAMENDDGRTEEEKHSAVQRQGSGRESPSLASREGKYIPLPQRVREGPRGGVRCSSSRGGRPGLSSLPPRGPHHLDNSSPGPGSEARGINGGPSRMSPKAQRPLRGAKTLSSPSNRPSGETSVPPPPAVGRMYPPRSPKSAAPAPISASCPEPPIGSAVPTSSASIPVTSSVSDPGVGSISPASPKISLAPTDVKELSTKEPGRTLEPQELARIAGKVPGLQNEQKRFQLEELRKFGAQFKLQPSSSPENSLDPFPPRILKEEPKGKEKEVDGLLTSEPMGSPVSSKTESVSDKEDKPPLAPSGGTEGPEQPPPPCPSQTGSPPVGLIKGEDKDEGPVAEQVKKSTLNPNAKEFNPTKPLLSVNKSTSTPTSPGPRTHSTPSIPVLTAGQSGLYSPQYISYIPQIHMGPAVQAPQMYPYPVSNSVPGQQGKYRGAKGSLPPQRSDQHQPASAPPMMQAAAAAGPPLVAATPYSSYIPYNPQQFPGQPAMMQPMAHYPSQPVFAPMLQSNPRMLTSGSHPQAIVSSSTPQYPSAEQPTPQALYATVHQSYPHHATQLHAHQPQPATTPTGSQPQSQHAAPSPVQHQAGQAPHLGSGQPQQNLYHPGALTGTPPSLPPGPSAQSPQSSFPQPAAVYAIHHQQLPHGFTNMAHVTQAHVQTGITAAPPPHPGAPHPPQVMLLHPPQSHGGPPQGAVPQSGVPALSASTPSPYPYIGHPQGEQPGQAPGFPGGADDRIREFSLAGGIWHGRAEGLQVGQDARVLGGE
binding: binds

B6: SCY1-like protein 2 (protein, UniProt Q6P3W7 1-929)
chain: MESMLNKLKSTVTKVTADVTSAVMGNPVTREFDVGRHIASGGNGLAWKIFNGTKKSTKQEVAVFVFDKKLIDKYQKFEKDQIIDSLKRGVQQLTRLRHPRLLTVQHPLEESRDCLAFCTEPVFASLANVLGNWENLPSPISPDIKDYKLYDVETKYGLLQVSEGLSFLHSSVKMVHGNITPENIILNKSGAWKIMGFDFCVSSTNPSEQEPKFPCKEWDPNLPSLCLPNPEYLAPEYILSVSCETASDMYSLGTVMYAVFNKGKPIFEVNKQDIYKSFSRQLDQLSRLGSSSLTNIPEEVREHVKLLLNVTPTVRPDADQMTKIPFFDDVGAVTLQYFDTLFQRDNLQKSQFFKGLPKVLPKLPKRVIVQRILPCLTSEFVNPDMVPFVLPNVLLIAEECTKEEYVKLILPELGPVFKQQEPIQILLIFLQKMDLLLTKTPPDEIKNSVLPMVYRALEAPSIQIQELCLNIIPTFANLIDYPSMKNALIPRIKNACLQTSSLAVRVNSLVCLGKILEYLDKWFVLDDILPFLQQIPSKEPAVLMGILGIYKCTFTHKKLGITKEQLAGKVLPHLIPLSIENNLNLNQFNSFISVIKEMLNRLESEHKTKLEQLHIMQEQQKSLDIGNQMNVSEEMKVTNIGNQQIDKVFNNIGADLLTGSESENKEDGLQNKHKRASLTLEEKQKLAKEQEQAQKLKSQQPLKPQVHTPVATVKQTKDLTDTLMDNMSSLTSLSVSTPKSSASSTFTSVPSMGIGMMFSTPTDNTKRNLTNGLNANMGFQTSGFNMPVNTNQNFYSSPSTVGVTKMTLGTPPTLPNFNALSVPPAGAKQTQQRPTDMSALNNLFGPQKPKVSMNQLSQQKPNQWLNQFVPPQGSPTMGSSVMGTQMNVIGQSAFGMQGNPFFNPQNFAQPPTTMTNSSSASNDLKDLFG
binding: binds
